PubChem BioAssay AID2662 (National Center for Advancing Translational Sciences (NCATS), 2010)
About 110 (0.038%) of roughly 290,000 compounds were called active. This list was built around the results that the source calls inconclusive (neither active nor inactive); the mix of calls is not that of the screen. Calls follow the shape of the dose curve; as a rule, active = well fitted inhibition curve with a large enough effect in the polarisation, with a control signal flat (not every such curve was filed as active); inconclusive = small, poorly fitted or top-dose-only effect, or effect the other way, or a change in a side signal; inactive = no such curve, though single readings can be large or run the other way; the % refers to the polarisation. Where the call is inconclusive, the potency comes from a doubtful curve fit. A note “side channel” means that the fit belongs to a control or component signal, not to the main read-out.

Amino acid sequences for entries named in this document (tags omitted).
UniProt Q03164, whole entry, looked up: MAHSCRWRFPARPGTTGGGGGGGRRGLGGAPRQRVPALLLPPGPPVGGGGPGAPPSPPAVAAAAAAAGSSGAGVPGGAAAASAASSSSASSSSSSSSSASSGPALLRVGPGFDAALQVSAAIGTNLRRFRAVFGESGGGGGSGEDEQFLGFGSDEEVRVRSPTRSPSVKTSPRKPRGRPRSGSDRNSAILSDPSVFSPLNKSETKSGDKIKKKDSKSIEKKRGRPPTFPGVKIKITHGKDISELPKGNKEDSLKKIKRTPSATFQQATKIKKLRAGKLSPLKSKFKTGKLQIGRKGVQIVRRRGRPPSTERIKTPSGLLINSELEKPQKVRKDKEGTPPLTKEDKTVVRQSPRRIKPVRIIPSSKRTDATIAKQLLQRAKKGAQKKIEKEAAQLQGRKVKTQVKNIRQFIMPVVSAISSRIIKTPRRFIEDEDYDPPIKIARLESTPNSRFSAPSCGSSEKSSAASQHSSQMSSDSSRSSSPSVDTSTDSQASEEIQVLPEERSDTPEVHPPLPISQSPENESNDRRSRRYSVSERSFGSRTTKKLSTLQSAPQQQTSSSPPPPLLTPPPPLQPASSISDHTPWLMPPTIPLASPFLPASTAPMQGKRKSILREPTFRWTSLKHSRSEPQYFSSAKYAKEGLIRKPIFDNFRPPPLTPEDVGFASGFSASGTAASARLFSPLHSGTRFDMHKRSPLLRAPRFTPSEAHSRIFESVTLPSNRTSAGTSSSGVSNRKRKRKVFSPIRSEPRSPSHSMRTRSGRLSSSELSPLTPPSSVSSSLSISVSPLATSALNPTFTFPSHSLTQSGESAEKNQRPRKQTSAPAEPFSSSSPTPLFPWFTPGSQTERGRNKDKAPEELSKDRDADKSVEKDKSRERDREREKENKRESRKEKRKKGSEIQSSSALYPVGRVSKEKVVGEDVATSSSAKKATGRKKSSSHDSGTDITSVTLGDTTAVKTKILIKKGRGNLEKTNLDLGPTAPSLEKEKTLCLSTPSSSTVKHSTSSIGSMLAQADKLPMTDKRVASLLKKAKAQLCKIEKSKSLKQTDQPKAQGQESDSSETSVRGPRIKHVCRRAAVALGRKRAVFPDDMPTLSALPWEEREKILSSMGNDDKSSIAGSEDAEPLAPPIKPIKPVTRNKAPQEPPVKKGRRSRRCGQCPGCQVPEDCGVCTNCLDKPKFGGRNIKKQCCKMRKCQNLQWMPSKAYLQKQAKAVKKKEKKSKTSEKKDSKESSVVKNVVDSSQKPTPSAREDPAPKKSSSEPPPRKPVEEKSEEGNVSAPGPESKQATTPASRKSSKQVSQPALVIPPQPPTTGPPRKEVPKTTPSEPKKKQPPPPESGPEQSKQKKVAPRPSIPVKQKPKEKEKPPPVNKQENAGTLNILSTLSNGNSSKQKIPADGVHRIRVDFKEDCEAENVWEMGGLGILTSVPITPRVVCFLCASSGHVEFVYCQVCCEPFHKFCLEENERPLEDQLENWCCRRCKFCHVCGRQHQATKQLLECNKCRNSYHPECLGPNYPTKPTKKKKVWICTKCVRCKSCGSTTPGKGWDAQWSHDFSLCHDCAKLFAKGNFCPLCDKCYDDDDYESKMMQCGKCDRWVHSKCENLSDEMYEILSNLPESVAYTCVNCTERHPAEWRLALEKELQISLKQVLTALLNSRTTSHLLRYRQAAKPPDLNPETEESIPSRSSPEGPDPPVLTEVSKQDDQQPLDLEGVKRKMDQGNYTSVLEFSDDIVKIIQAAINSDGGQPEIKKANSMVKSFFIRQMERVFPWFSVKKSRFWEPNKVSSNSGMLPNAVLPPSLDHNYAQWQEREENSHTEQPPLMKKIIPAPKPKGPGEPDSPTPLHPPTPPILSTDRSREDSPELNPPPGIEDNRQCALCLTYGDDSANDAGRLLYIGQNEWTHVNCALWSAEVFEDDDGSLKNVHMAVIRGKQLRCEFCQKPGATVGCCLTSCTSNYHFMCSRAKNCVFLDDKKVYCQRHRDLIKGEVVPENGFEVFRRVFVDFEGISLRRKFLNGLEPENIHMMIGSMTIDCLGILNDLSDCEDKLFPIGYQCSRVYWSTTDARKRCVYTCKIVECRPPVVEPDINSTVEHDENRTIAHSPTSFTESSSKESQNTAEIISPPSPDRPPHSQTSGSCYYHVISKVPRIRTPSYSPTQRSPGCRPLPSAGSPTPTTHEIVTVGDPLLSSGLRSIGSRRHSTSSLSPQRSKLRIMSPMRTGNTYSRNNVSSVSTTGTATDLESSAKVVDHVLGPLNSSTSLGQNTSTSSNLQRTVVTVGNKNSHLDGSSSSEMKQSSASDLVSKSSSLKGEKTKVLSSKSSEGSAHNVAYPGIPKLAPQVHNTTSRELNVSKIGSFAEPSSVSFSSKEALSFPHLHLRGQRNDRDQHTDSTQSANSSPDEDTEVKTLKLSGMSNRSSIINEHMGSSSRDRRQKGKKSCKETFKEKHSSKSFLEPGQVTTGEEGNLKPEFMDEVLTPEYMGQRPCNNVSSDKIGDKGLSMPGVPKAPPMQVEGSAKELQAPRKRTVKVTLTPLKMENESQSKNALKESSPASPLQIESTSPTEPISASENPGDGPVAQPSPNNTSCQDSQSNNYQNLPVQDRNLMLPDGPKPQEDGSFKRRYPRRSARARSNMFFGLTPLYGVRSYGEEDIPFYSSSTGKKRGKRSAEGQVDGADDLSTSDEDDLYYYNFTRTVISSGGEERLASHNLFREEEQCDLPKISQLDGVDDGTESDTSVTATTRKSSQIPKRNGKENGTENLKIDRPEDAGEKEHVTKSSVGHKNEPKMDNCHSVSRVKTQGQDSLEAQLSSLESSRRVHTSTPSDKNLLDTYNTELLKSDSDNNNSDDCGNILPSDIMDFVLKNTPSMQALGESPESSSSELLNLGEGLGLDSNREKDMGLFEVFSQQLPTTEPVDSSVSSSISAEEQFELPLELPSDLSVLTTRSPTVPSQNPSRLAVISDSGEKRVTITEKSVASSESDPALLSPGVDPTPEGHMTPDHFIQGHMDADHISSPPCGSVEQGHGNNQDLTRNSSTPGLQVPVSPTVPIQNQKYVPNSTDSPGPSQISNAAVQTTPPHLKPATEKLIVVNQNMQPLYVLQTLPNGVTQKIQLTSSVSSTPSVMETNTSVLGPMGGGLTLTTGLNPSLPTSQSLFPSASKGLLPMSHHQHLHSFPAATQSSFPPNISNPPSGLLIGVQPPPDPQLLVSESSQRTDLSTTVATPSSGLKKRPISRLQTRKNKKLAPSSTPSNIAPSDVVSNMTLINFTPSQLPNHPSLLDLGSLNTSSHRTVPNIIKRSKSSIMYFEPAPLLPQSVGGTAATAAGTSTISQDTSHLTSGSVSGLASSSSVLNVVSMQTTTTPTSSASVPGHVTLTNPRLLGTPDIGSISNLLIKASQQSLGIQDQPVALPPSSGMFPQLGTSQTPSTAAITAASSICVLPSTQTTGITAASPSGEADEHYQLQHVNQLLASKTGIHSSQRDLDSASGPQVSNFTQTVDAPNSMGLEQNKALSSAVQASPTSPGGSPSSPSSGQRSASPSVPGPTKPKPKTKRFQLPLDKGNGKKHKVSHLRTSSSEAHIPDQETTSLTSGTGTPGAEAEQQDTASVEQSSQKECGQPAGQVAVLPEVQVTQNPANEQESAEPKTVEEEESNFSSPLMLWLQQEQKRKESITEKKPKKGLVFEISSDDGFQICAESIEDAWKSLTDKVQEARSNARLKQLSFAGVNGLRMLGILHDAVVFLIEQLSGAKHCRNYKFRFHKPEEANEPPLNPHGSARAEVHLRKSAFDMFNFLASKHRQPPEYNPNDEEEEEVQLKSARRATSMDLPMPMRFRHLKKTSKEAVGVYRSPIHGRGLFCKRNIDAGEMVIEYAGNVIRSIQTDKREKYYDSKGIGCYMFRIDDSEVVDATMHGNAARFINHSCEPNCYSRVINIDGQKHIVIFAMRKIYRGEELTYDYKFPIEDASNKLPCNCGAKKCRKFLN

Target: Histone-lysine N-methyltransferase 2A (Homo sapiens) (UniProt Q03164)
Assay: qHTS Fluorescence Polarization Assay for Inhibitors of MLL CXXC domain - DNA interaction
Conditions: MLL-CXXC / FITC-HOXA9 DNA fluorescence polarization; series mostly up to 115 µM
Procedure, shortened: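 Steps: dispense CXXC domain solution (7 uM) → pin compounds or unlabeled HOX-A9 DNA control → 5 min ambient → add FLSN-HOX-A9 solution (50 nM) → spin → 30 min ambient → fluorescence polarization. Tris pH 7.5/NaCl/DTT/BSA buffer.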
Potency is read from the fitted curve at half-maximal effect.

Compound | Potency
COC1=C/C(=C/c2c(N)n3cc(C)sc3nc2=O)C=CC1=O | inconclusive: 10 µM [fluorescent, side channel, single point]
Cc1cnc(CNC(=O)CC2C(=O)NCCN2Cc2ccccc2C(F)(F)F)cn1 (stereo not drawn) | inconclusive: 89.1 µM [inhibitor, single point]
OC(Cn1cncn1)(c1ccc(F)cc1)c1ccc(Cl)cc1 (stereo not drawn) | active: 89.1 µM
COc1cccc(CNCc2ccc(C(=O)O)cc2)c1OC | inconclusive: 31.6 µM [inhibitor, single point]
COc1cccc(/C=N/NC(=O)C(C)n2nc(C)c([N+](=O)[O-])c2C)c1O (stereo not drawn) | inactive
CCOC(=O)c1c(C)oc2c1c(C=NCC1CCCO1)c(O)c1ccccc12 (stereo not drawn) | inactive
CCC1C(=O)Nc2ccccc2N1C(=O)COc1ccccc1 (stereo not drawn) | inconclusive: 14.1 µM [fluorescent, side channel, single point]
COc1ccccc1N1C(=O)C2C(C(=O)c3ccccc3)=NN(c3ccccc3OC)C2C1=O (stereo not drawn) | inconclusive: 70.8 µM [fluorescent, side channel, single point]
O=C(NCc1ccc(F)cc1)c1cccnc1C(=O)O | inconclusive: 14.1 µM [fluorescent, side channel, single point]
CCOc1ccc(NC(=O)CN2CCN(CC(=O)c3ccc(OCC)cc3)CC2)cc1 | inactive
C[C@H](C(=O)CC(=O)OC(C)(C)C)[C@H](O)c1ccc(C(F)(F)F)cc1 | inactive
COc1ccc(/C=N/NC(=O)c2ccncc2)cc1Cn1nc([N+](=O)[O-])c(Br)c1C | inactive
Cc1ccc(N2CC(C(=O)Nc3nnc(SCc4ccccn4)s3)CC2=O)cc1 (stereo not drawn) | inconclusive: 11.2 µM [fluorescent, side channel, single point]
Cc1ccc(NC(=O)CSc2ccc(-c3ccco3)nn2)c(C)c1 | inconclusive: 100 µM [fluorescent, side channel, partial curve]
COc1ccc(S(=O)(=O)N2CCOC2CNC(=O)C(=O)NCCCN2CCOCC2)cc1 (stereo not drawn) | inconclusive: 56.2 µM [inhibitor, single point]
Cc1cc(NCCOCCO)n2ncc(-c3ccc(Cl)cc3)c2n1 | inactive
COc1cc(C=C2C(=O)OC(c3ccccc3)OC2=O)cc(Br)c1O (stereo not drawn) | inconclusive: 44.7 µM [inhibitor, single point]
Cc1ccc(C(=O)N/C(=C\c2ccc(-c3ccccc3[N+](=O)[O-])o2)C(=O)NCCN(C)C)cc1 | inconclusive: 31.6 µM [quencher, side channel, single point]
O=C(CCc1nc(-c2ccccc2Cl)no1)NC1CCCCC1 | inconclusive: 63.1 µM [quencher, side channel, single point]

Compound | Potency
Cc1ccc(C(=O)OCC(=O)c2c[nH]c3ccccc23)cc1NC(=O)c1ccco1 | inconclusive: 39.8 µM [fluorescent, side channel, single point]
COc1ccc(C2C=C(c3cccs3)Nc3nc(CCCO)nn32)cc1 (stereo not drawn) | inconclusive: 22.4 µM [fluorescent, side channel, partial curve]
O=C(CCN1C(=O)/C(=C/C=C/c2ccccc2)SC1=S)Nc1nccs1 | inconclusive: 17.8 µM [inhibitor, partial curve]
CC1CCN(c2ccc(NC(=O)c3ccccc3[N+](=O)[O-])cc2)CC1 | inconclusive: 15.8 µM [quencher, side channel, single point]
CN(C)S(=O)(=O)c1cccc(-c2nn(-c3ccccc3)cc2/C=C2\SC(=S)N(CC(=O)O)C2=O)c1 | inconclusive: 70.8 µM [inhibitor, single point]
COC(=O)c1ccc(C(c2c(N)n(CC(C)C)c(=O)[nH]c2=O)N2CCN(c3ccccc3)CC2)cc1 (stereo not drawn) | inconclusive: 35.5 µM [inhibitor, partial curve]
COc1ccc(CCn2c(O)cc3nn(-c4nc5ccccc5s4)c(=O)c-3c2C)cc1 | inconclusive: 11.2 µM [fluorescent, side channel, partial curve]
O=C(/C=C/c1ccc(N2CCC(c3ccccc3)=N2)cc1)c1ccccc1 | inconclusive: 2.82 µM [fluorescent, side channel, full curve]
Brc1ccc(C2=CC(c3cccs3)n3ncnc3N2)cc1 (stereo not drawn) | inconclusive: 35.5 µM [fluorescent, side channel, partial curve]
NS(=O)(=O)c1ccc(NC(=O)c2c(F)cccc2Cl)cc1 | inactive
COC(=O)CNc1nc(-c2ccncc2)nc2ccccc12 | inconclusive: 44.7 µM [fluorescent, side channel, single point]
CCc1nn(CC(=O)N(C)C2CCCCC2)c(=O)c2cc3cc(C)ccc3n12 | inconclusive: 15.8 µM [fluorescent, side channel, partial curve]
CCOc1cc(/C=C2/NC(=O)NC2=O)cc(Br)c1OCc1ccc(C(=O)O)cc1 | inconclusive: 56.2 µM [inhibitor, single point]
O=C1ON=C(c2ccccc2)/C1=C/c1ccccc1 | inconclusive: 22.4 µM [inhibitor, partial curve]
O=C(NCCCN1CCOCC1)C(=O)NCC1OCCN1S(=O)(=O)c1ccc(Br)cc1 (stereo not drawn) | inconclusive: 11.2 µM [fluorescent, side channel, single point]
Cc1ccnc(NS(=O)(=O)c2ccc(NS(=O)(=O)c3ccc([N+](=O)[O-])cc3)cc2)n1 | inconclusive: 70.8 µM [quencher, side channel, single point]
Cc1cc(N/N=C/c2ccccc2O)c2ccccc2n1 | inconclusive: 70.8 µM [quencher, side channel, single point]
COc1ccc(CCNC(=O)c2cccnc2)cc1 | inconclusive: 14.1 µM [fluorescent, side channel, single point]
Cc1cc(N)c2cc(NC(=O)/C=C/c3ccccc3Cl)ccc2n1 | inconclusive: 89.1 µM [quencher, side channel, partial curve]

Ordered by heavy-atom count (rising): some entries from above.
Compound | Potency
Cc1ccc(NC(=O)CSc2ccc(-c3ccco3)nn2)c(C)c1 | inconclusive: 100 µM [fluorescent, side channel, partial curve]
O=C(/C=C/c1ccc(N2CCC(c3ccccc3)=N2)cc1)c1ccccc1 | inconclusive: 2.82 µM [fluorescent, side channel, full curve]
COc1ccc(/C=N/NC(=O)c2ccncc2)cc1Cn1nc([N+](=O)[O-])c(Br)c1C | inactive
